In US8980843B2 (Temple University—of the Commonwealth System of Higher …, priority 2009, dated 2015):

Assay: general procedure: Fmoc solid-phase peptide synthesis; Rink Amide AM Resin; HATU
Settings: whole synthesis, 220 and 280 nm, scale of the general procedure 0.025-1 mmol

With “Tyr(I2)-Ser-Thr(α-GalNAc)-Glu-Val-Val-Ala-Leu-Ser-Arg-AcpNH2” the “final HPLC purity” value was greater than 95%.
